Reference: PubChem BioAssay AID493014 (National Center for Advancing Translational Sciences (NCATS), 2011)
The list shows a part of the results. Further columns of the screen follow, without active or inactive calls. Most of these compounds were active or inconclusive in the main read-out, so they are no random draw. Words in brackets tell the shape of the fitted curve; partial curves, single points and poor fits give uncertain potencies.

Test: qHTS Assay to Find Inhibitors of Chronic Active B-Cell Receptor Signaling
Conditions: ABC-DLBCL IkBa-CBG/CBR reporter, luminescence ratio (green luciferase fused to IkBa over red control in TMD8 lymphoma cells), 4 h
In short: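 TMD8 human ABC-DLBCL cells with doxycycline-inducible IκBα–green luciferase fusion and unfused red luciferase, in 0.5% FBS medium; compounds up to 46 uM, 4 h at 37C. Green/red luminescence ratio, filter-overlap corrected, fitted to concentration-response curves.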

[1] = measured here: CBR red luminescence, cell number
[2] = measured here: IkBa-CBG green luminescence

## CC(=O)c1c(C)[nH]c(C(=O)OCc2ccccc2F)c1C
[1]
  AC50: 1.58 µM [rising, partial curve, poor fit]

## O=C(N/N=C/c1ccc([N+](=O)[O-])s1)C(O)c1ccccc1 (centres undefined)
[1]
  AC50: 29.1 µM [falling, single point]

## O=[N+]([O-])c1ccc2c(c1)nnn2-c1ccccc1
[1]
  AC50: 35.5 µM [rising, single point]

## O=S(=O)(c1ccc(N2CCOCC2)c(Cl)c1)N1CCOCC1
[1]
  AC50: 11.2 µM [falling, single point]

## O=C(NCCCn1ccnc1)c1cc2nc(-c3ccc(Br)cc3)cc(C(F)(F)F)n2n1
[1]
  AC50: 16.4 µM [rising, single point]

## CC(NC(=O)COC(=O)CCC(=O)c1ccc(Cl)cc1)c1ccccc1 (centres undefined)
[1]
  AC50: 29.1 µM [rising, single point]

## COc1ccc(C(=O)Nc2cc(Cl)ccc2Cl)c(OC)n1
[1]
  AC50: 29.1 µM [rising, single point]

## COc1ccc(NS(=O)(=O)c2cc(NC(=O)[C@@H](NC(N)=O)C(C)C)ccc2C)cc1
[1]
  AC50: 0.1 µM [rising, full curve, poor fit]

## COc1cccc(C2c3[nH]c4ccccc4c3C[C@H]3C(=O)N(c4ccccc4C(=O)N4CCC(C(=O)O)CC4)C(=O)N23)c1 (some centres undefined)
[1]
  AC50: 8.91 µM [falling, partial curve, poor fit]

## C=C(C(=O)c1ccccc1)C(C)C(=C)C(=O)c1ccccc1
[1]
  AC50: 7.31 µM [falling, partial curve]

## COc1cccc(NC(=O)[C@@H](NC(=O)N2CCn3c2nc2ccccc23)C(C)C)c1
[1]
  AC50: 10 µM [falling, partial curve]

## O=C1c2ccccc2C(=O)N1CN(C(=O)COc1ccccc1)c1ccc(F)cc1
[1]
  AC50: 13 µM [falling, partial curve, poor fit]

## O=S(=O)(NCC(c1cccnc1)N1CCN(c2ccc(F)cc2)CC1)c1ccc(F)cc1 (centres undefined)
[1]
  AC50: 25.9 µM [falling, single point]

## CCN1C(=NCCN2CCOCC2)N[C@@H](c2ccccc2)C(C(=O)OC)=C1C
[1]
  AC50: 0.447 µM [rising, partial curve, poor fit]

## CCc1cc2c(=O)c(-c3cnn(-c4ccccc4)c3)c(C)oc2cc1OCC(=O)Nc1cccc(C)c1
[1]
  AC50: 18.4 µM [rising, partial curve, poor fit]

## O=C(CNC(=O)OCc1ccccc1)Nc1ccc(F)cc1
[1]
  AC50: 18.4 µM [rising, single point]

## NC1=NC(=O)S/C1=C\c1ccc(F)cc1
[1]
  AC50: 10 µM [falling, partial curve]

## CC1=C(C(=O)OCc2ccccc2)C(c2ccc([N+](=O)[O-])cc2)NC(=O)N1 (centres undefined)
[1]
  AC50: 14.1 µM [falling, single point]

## S=C(N/N=C/c1ccc(Br)cc1)N1CCCCC1
[1]
  AC50: 35.5 µM [falling, single point]

## COc1ccc(-c2n[nH]c(C)c2-c2cnn(-c3ccccc3)c2)c(O)c1
[1]
  AC50: 0.259 µM [rising, full curve, poor fit]

## CCC(=O)N1CCc2cc(-c3csc(NC(=O)c4ccco4)n3)ccc21
[1]
  AC50: 0.708 µM [rising, partial curve, poor fit]

## Oc1[nH]c2c(Cl)cc(Cl)cc2c1N=NC(=S)NCC1CCCO1 (centres undefined)
[1]
  AC50: 6.51 µM [rising, single point]
[2]
  AC50: 3.26 µM [falling, full curve]

## Cc1ccc(C)c(NC(=S)NC(NC(=O)Cc2cccc3ccccc23)C(Cl)(Cl)Cl)c1 (centres undefined)
[1]
  AC50: 32.6 µM [rising, partial curve, poor fit]

## NC(=O)c1ccc(-c2noc(-c3ccccc3F)n2)cc1
[1]
  AC50: 8.2 µM [falling, partial curve, poor fit]

## O=C(Nc1ccc(O)c(-c2nc3ccccc3s2)c1)c1cccs1
[1]
  AC50: 1.03 µM [falling, full curve, poor fit]

## Cc1cnc(NC(=O)CSc2nc3ccccc3c(=O)[nH]2)s1
[1]
  AC50: 8.2 µM [falling, partial curve, poor fit]

## O=C(NNC(=O)c1cccs1)c1ccc2ccccc2c1
[1]
  AC50: 4.47 µM [falling, partial curve]

## Cc1nn(-c2ccccc2)c(C)c1/C=N/N1CCN(c2ccccc2)CC1
[1]
  AC50: 5.8 µM [rising, single point]

## O=C1CN(C(=O)/C=C/c2cccc(Cl)c2)c2ccccc2N1
[1]
  AC50: 1.41 µM [rising, full curve]

## CCOc1ccc(S(=O)(=O)NCCOC)cc1C
[1]
  AC50: 0.00517 µM [rising, full curve, poor fit]

## CCN(CC(=O)N1CCOCC1)S(=O)(=O)c1cc(Cl)ccc1Cl
[1]
  AC50: 12.6 µM [rising, partial curve, poor fit]

## Cc1c(C(=O)NCc2ccccn2)oc2ccc(S(=O)(=O)N3CCC4(CC3)OCCO4)cc12
[1]
  AC50: 5.01 µM [rising, full curve, poor fit]

## CCCC(=O)Nc1sc(C(=O)Nc2cccc(N)c2)c(C)c1C(=O)OC
[1]
  AC50: 2.82 µM [falling, partial curve, poor fit]

## CCOC(=O)C1CCN(C(=O)CSc2cc(=O)n(C)c3ccccc23)CC1
[1]
  AC50: 14.1 µM [rising, single point]

## NS(=O)(=O)c1ccc(N=Nc2c(O)ccc3ccccc23)cc1
[1]
  AC50: 5.62 µM [falling, full curve, poor fit]

## C/C(=C\C(=O)c1ccc(Br)cc1)Nc1ccc(Cl)cc1
[1]
  AC50: 20.6 µM [rising, partial curve]

## Cn1cc(C(=O)N/N=C/C(Br)=C/c2ccccc2)ccc1=O
[1]
  AC50: 4.61 µM [rising, single point]

## Cc1cc(C(=O)Nc2ccccc2C(=O)O)ccc1NC(=O)COc1cccc(C)c1C
[1]
  AC50: 1 µM [rising, full curve, poor fit]

## CCOCCCN(C(=O)CNC(=O)c1ccco1)C(C(=O)NC1CCCC1)c1ccccc1C (centres undefined)
[1]
  AC50: 11.2 µM [rising, partial curve]

## CN1CCN(c2ncnc3c2c(-c2ccccc2)cn3-c2ccc(F)cc2)CC1
[1]
  AC50: 17.8 µM [falling, single point]

## CC1CCC(CN2C(Nc3ccccc3)=NC[C@@H]2Cc2ccccc2)CC1 (some centres undefined)
[1]
  AC50: 32.6 µM [falling, partial curve, poor fit]

## Fc1ccccc1/C=N/Nc1nc(-c2ccccn2)nc2ccccc12
[1]
  AC50: 22.4 µM [rising, partial curve, poor fit]

## CC(=O)c1ccc(NC(=O)CSc2nc3nc(C)cc(C)n3n2)cc1
[1]
  AC50: 29.1 µM [rising, single point]

## O=C(/C=C/c1ccco1)N/C(=C\c1ccco1)C(=O)NCCc1nc2ccccc2[nH]1
[1]
  AC50: 25.9 µM [falling, single point]

## CC(=O)Nc1c(C)cc(OCC(=O)O)cc1C
[1]
  AC50: 35.5 µM [rising, single point]

## FC(F)(F)c1ccc2c3n(nc2c1)CCN=C3c1ccc(Cl)cc1
[1]
  AC50: 32.6 µM [falling, partial curve, poor fit]

## COc1ccc(N(CC(=O)NCCC2=CCCCC2)S(=O)(=O)c2ccccc2F)cc1
[1]
  AC50: 0.112 µM [rising, full curve, poor fit]

## O=C(CCn1c(=O)oc2ccccc21)NCCCN1CCN(c2ccc(F)cc2)CC1
[1]
  AC50: 17.8 µM [falling, partial curve, poor fit]

## COC(=O)N/N=C/c1ccc(-c2ccc(C)c(Cl)c2)o1
[1]
  AC50: 2.06 µM [rising, partial curve, poor fit]

## O=C(Cc1coc2cc3c(cc12)CCC3)OCc1cc(=O)n2c(n1)sc1ccccc12
[1]
  AC50: 0.651 µM [falling, full curve, poor fit]

## CCc1ccc(OCC(=O)c2c(O)c3ccccc3oc2=O)cc1
[1]
  AC50: 5.62 µM [falling, partial curve, poor fit]

## O=C(O)CCCN1C(=O)/C(=C\c2ccco2)SC1=S
[1]
  AC50: 1.26 µM [falling, full curve, poor fit]

## Cc1noc(/C=C/N(C)C)c1S(=O)(=O)N(C)CC(=O)NC1CCCCC1
[1]
  AC50: 32.6 µM [falling, single point]

## Cc1oc2ccc(NS(=O)(=O)c3ccc(C(C)(C)C)cc3)cc2c1C(=O)Nc1ccccc1
[1]
  AC50: 1.26 µM [falling, partial curve, poor fit]

## O=[N+]([O-])c1ccc(Sc2nccn2Cc2ccccc2)c([N+](=O)[O-])c1
[1]
  AC50: 32.6 µM [falling, single point]
[2]
  AC50: 4.61 µM [rising, partial curve, poor fit]

## O=C(NC(O)C(=O)c1ccccc1)c1ccccn1 (centres undefined)
[1]
  AC50: 25.1 µM [falling, single point]

## Cc1cc(C(=O)CSc2ccc3c(c2)OCCO3)c(C)n1C1CC1
[1]
  AC50: 29.1 µM [falling, single point]

## C[C@]12CC[C@H](O)CC1=CCC1C2CC[C@@]2(C)C1CC[C@@H]2NC(=O)CCC(=O)O (some centres undefined)
[1]
  AC50: 29.1 µM [rising, partial curve, poor fit]

## Cc1cc(C)nc(SCc2c(F)cccc2Cl)n1
[2]
  AC50: 10 µM [falling, partial curve, poor fit]

## COc1ccc(/C=C/C(=O)N2CCCc3ccccc32)c(OC)c1
[1]
  AC50: 17.8 µM [falling, partial curve, poor fit]

## O=C(NN1C(=O)C2C(c3ccccc3)C=CC(c3ccccc3)C2C1=O)c1cccc(Br)c1 (centres undefined)
[1]
  AC50: 23.1 µM [falling, single point]

## CC1Nc2ncnc(N3CCc4ccccc4C3)c2N(Cc2ccc(Br)cc2)C1=O (centres undefined)
[1]
  AC50: 23.1 µM [falling, single point]
